# Experimental data: the supplement of paper PMC8551327
# Where a name gives a salt, the structure may show the parent alone. The list shows a part of the results. Rule as the data show it: active = 1.25 or more and inactive = the rest. Most values come without repeats; read them as rough.
# Tested on: Kcc2-LUC knock-in mouse primary cortical neurons (Kcc2 promoter reporter)
# Experiment: Kcc2 promoter-driven luciferase activity relative to vehicle control (fold of vehicle (ratio)); higher = stronger Kcc2 promoter activation (Kcc2 expression enhancer)
# Settings: 100 nM; 48 h
row,Compound,Kcc2 promoter-driven luciferase activity
1,"CC1=NC(C(C)C)C(=O)O1 (centres undefined) [2-Methyl-4-propan-2-yl-4H-1,3-oxazol-5-one]",active: 1.35
2,"NC1=NCN([C@@H]2O[C@H](CO)[C@@H](O)[C@H]2O)C(=O)N1 [5,6-dihydro-5'-azacytidine]",inactive: 0.69
3,CN1CC[C@]23c4ccccc4N[C@H]1[C@]21CCN(C)[C@H]3Nc2ccccc21 [Calycanthine],inactive: 0.75
4,CCN(CC)CCNc1ccc(CO)c2sc3ccccc3c(=O)c12 [Hycanthone mesylate],inactive: 0.9
5,CC(C=CC(O)=C1C(=O)CNC1=O)=CC(C)C1OC2(C)OC(C(=O)C3OC32C)C1C (centres undefined) [Tirandamycin],inactive: 1.24
6,"CCCCCCC1CC(=O)C1(Cl)Cl (centres undefined) [2,2-Dichloro-3-hexylcyclobutanone]",inactive: 1.13
7,CCOc1ccccc1NC(=O)CC1Sc2ccccc2NC1=O (centres undefined),inactive: 1.08
8,COc1ccc(CCN(C)CCCC(C#N)(c2ccc(OC)c(OC)c2)C(C)C)cc1OC (centres undefined) [Verapamil hydrochloride],active: 1.25
9,COc1cc2c(c(OC)c1OC)-c1c(cc3c(c1OC)OCO3)C[C@H](C)[C@](C)(O)[C@H]2OC(=O)c1ccccc1 [Gomisin C],inactive: 1.09
10,CC1(C)CCCC2(C)C3=C(CCC12)C(=O)OC3 (centres undefined) [Confertifoline],inactive: 1.24
11,CN(C)c1ccc(/C=c2/sc3nc(=O)c(-c4ccccc4NC(=O)C(F)(F)F)nn3c2=O)cc1,inactive: 1.23
12,COC(=O)c1cc(-c2c[nH]cc2C(=O)OCc2ccccc2)cn1S(=O)(=O)c1ccc(C)cc1,inactive: 0.48
13,CN[C@@H]1[C@H](O)[C@H](NC)[C@H]2O[C@@]3(O)C(=O)C[C@@H](C)O[C@H]3O[C@@H]2[C@H]1O [Spectinomycin Sulfate],inactive: 1.23
14,CC(C)C[C@@H]1NC(=O)[C@H](C(C)C)NC(=O)[C@H](C(C)C)OC(=O)[C@@H](CC(C)C)N(C)C(=O)[C@@H](C(C)C)NC(=O)[C@H](C(C)C)OC1=O [Sporidesmolide 1],inactive: 1.15
15,"C[C@H](CN1CC(=O)NC(=O)C1)N1CC(=O)NC(=O)C1 [Razoxane, (R)-Isomer]",inactive: 1.07
16,"Cc1cc(-c2nc3ccccc3s2)ccc1N [4-(1,3-Benzothiazol-2-yl)-2-methylaniline]",active: 6.44
17,COc1ccc(/C=C2\CCCc3ccccc3C2=O)cc1,inactive: 0.95
18,Cc1c(N)nc(C(CC(N)=O)NCC(N)C(N)=O)nc1C(=O)NC(C(=O)NC(C)C(O)C(C)C(=O)NC(C(=O)NCCc1nc(-c2nc(C(=O)NCCCNCCCCN)cs2)cs1)C(C)O)C(OC1OC(CO)C(O)C(O)C1OC1OC(CO)C(O)C(OC(N)=O)C1O)c1cnc[nH]1 (centres undefined) [Bleomycin A5-Sulfate],inactive: 0.77
19,"CCOC(=O)CCc1c(C)c2c(O)cc(O)cc2oc1=O [Ethyl 3-(5,7-dihydroxy-4-methyl-2-oxochromen-3-yl)propanoate]",active: 1.72
20,O=C(O)CC(NC(=O)CP(=O)(O)O)C(=O)O (centres undefined),inactive: 1.21

row,Compound,Kcc2 promoter-driven luciferase activity
1,OCCNCN(CNCCO)c1nc(N(CNCCO)CNCCO)nc(N(CNCCO)CNCCO)n1 [Hexahydroxyethylaminomethyl melamine],inactive: 0.77
2,CC(=O)C(NC(=O)C(C)C(O)C(C)NC(=O)C(NC(=O)c1nc(C(CC(N)=O)NCC(N)C(N)=O)nc(N)c1C)C(O[C@@H]1O[C@@H](CO)[C@@H](O)[C@H](O)[C@]1(C)O[C@@H]1OC(CO)[C@H](O)[C@](O)(C(N)=O)[C@H]1O)c1cnc[nH]1)C(=O)NCCC1=NC(c2nc(C(N)=O)cs2)CS1 (some centres undefined) [Phleomycin],inactive: 0.78
3,CC(C)(C)c1ccc(OC2CCO2)cc1 (centres undefined) [2-(4-Tert-Butylphenoxy)oxetane],inactive: 1.1
4,N#CC(C#N)=Cc1ccc(Oc2ccccc2)cc1 [2-[(4-phenoxyphenyl)methylidene]propanedinitrile],inactive: 1.05
5,Cc1cc(Cl)cc2c1NC(=O)C2(O)C(C(=O)c1ccccc1)c1ccccc1 (centres undefined),inactive: 0.8
6,C=CCOC1OC(CO[Si](C)(C)C(C)(C)C)C(OCc2ccccc2)C(OCc2ccccc2)C1OCc1ccccc1 (centres undefined),inactive: 1.08
7,[N-]=[N+]=Nc1ccc2c(c1)Sc1ccccc1N2CCCCN1CCN(Cc2ccc(C(=O)c3ccccc3)cc2)CC1 [bismaleate salt],inactive: 1.18
8,C=C(C)[C@@H]1CC[C@]2(C)CC[C@]3(C)[C@H](CC[C@@H]4[C@@]5(C)CC[C@H](O)C(C)(C)[C@@H]5CC[C@]43C)[C@@H]12 [Lupeol],inactive: 0.46
9,O=[N+]([O-])c1ccc2c(N=Nc3c(O)ccc4ccccc34)c(O)cc(S(=O)(=O)O)c2c1 [Mordant Black 1],inactive: 0.41
10,COc1c2occc2c(OC)c2c(=O)cc(C)oc12 [Khellin],inactive: 1.08
11,COC(=O)Nc1nc2ccc(Br)cc2[nH]1 [methyl 6-bromo-1H-benzo[d]imidazol-2-ylcarbamate],inactive: 0.83
12,"CC(=O)C1CCCC(=O)C=CC(=O)O1 (centres undefined) [2-Acetyl-2,3,4,5-tetrahydrooxonine-6,9-dione]",active: 1.86
13,"OCCOc1ccc(-c2cc(-c3ccccn3)nc(-c3ccccn3)c2)cc1 [2-[4-(2,6-dipyridin-2-ylpyridin-4-yl)phenoxy]ethanol]",inactive: 0.87
14,NC(=O)CCC(NC(=O)Cc1ccccc1)C(=O)O (centres undefined) [Antineoplaston AS2-1],inactive: 0.78
15,"Cc1ccc2c(ccc(C=Cc3ccc(O)c4ncccc34)[n+]2C)c1 [Quinolinium,6-methyl-, iodide]",inactive: 0.4
16,COc1ccc2cc1Oc1ccc(cc1)CC1c3c(cc(OC)c4c3Oc3cc5c(cc3O4)CCNC5C2)CCN1C (centres undefined) [Trigilletine],inactive: 0.81
17,COc1ccc(/C=C2\CCc3ccccc3C2=O)cc1OC [(2E)-2-Veratrylidenetetralin-1-one],inactive: 0.99
18,O=S(=O)(O)c1cc(N=Nc2cc(S(=O)(=O)O)c3cccnc3c2O)ccc1/C=C/c1ccc(N=Nc2cc(S(=O)(=O)O)c3cccnc3c2O)cc1S(=O)(=O)O [Quinobene],inactive: 1.15
19,"Fc1cccc(Cl)c1C1SCc2nc3ccccc3n21 (centres undefined) [1-[2-Chloro-6-fluorophenyl]-3H-thiazolo[3,4-a]benzimidazole]",inactive: 0.99

# Taken from above:
# Value of C=C(C)[C@@H]1CC[C@]2(C)CC[C@]3(C)[C@H](CC[C@@H]4[C@@]5(C)CC[C@H](O)C(C)(C)[C@@H]5CC[C@]43C)[C@@H]12 [Lupeol] under Kcc2 promoter-driven luciferase activity: inactive: 0.46
# Value of COc1c2occc2c(OC)c2c(=O)cc(C)oc12 [Khellin] under Kcc2 promoter-driven luciferase activity: inactive: 1.08
